Two molecules from paper PMC11247741 can be followed below.

Protein sequences, listed by entry. Tags and fused reporters are not part of them.
UniProt P52480: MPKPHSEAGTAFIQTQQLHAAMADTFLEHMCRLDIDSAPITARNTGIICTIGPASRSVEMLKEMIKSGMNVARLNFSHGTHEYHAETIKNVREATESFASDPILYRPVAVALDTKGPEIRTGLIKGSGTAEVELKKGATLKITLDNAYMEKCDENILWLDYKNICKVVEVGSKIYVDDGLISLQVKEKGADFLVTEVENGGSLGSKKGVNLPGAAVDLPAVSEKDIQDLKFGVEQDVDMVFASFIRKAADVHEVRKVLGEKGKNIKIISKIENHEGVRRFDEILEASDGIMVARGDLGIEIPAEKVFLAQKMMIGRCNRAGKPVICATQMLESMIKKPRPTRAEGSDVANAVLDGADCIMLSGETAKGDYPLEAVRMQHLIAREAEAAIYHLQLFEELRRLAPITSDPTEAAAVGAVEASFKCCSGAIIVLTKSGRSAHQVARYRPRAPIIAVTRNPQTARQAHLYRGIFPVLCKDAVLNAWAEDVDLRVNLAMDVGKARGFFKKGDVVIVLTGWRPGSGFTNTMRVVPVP

These are yes or no findings as the source states them, for the method shown. In cells and extracts the contact can be indirect. Some binding calls cover weakened binding; strength is not graded here.

Experiment [1] deals with T1, Sirt2 (NAD-dependent deacetylase sirtuin-2), endogenous mouse (mouse (endogenous in liver and AML12)) (UniProt Q8VDQ8).
T1 sequence: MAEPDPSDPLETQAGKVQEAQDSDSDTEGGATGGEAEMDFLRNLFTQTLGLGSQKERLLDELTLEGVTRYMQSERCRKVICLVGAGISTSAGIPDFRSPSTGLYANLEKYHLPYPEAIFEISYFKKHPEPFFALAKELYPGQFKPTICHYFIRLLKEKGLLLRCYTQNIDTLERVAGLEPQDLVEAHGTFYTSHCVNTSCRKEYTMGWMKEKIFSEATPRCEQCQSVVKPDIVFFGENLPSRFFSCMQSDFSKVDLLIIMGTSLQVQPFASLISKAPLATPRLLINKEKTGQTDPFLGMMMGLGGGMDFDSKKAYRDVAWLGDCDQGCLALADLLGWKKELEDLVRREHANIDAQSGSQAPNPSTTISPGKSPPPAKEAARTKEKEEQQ
Nature of the experiment: co-IP; endogenous proteins in AML12 cell lysate; IP with anti-PKM2 or anti-Sirt2 antibody, protein A/G beads, western blot; IP-lysis buffer 50 mM Tris pH 7.4, 150 mM NaCl, 0.1 mM EDTA, 20% glycerol, 0.2% NP-40, 0.1% SDS. A general note: In western blotting, separated proteins are transferred to a membrane and probed.

The target of experiment [2] is PKM2 (M2 isoform of pyruvate kinase), endogenous mouse (mouse (endogenous in liver and AML12)) (UniProt P52480). Described as above.

With “PKM2 (M2 isoform of pyruvate kinase), endogenous mouse (from UniProt P52480 1-531)”, the binding result in experiment [1] was “binds”.

B1: Sirt2 (NAD-dependent deacetylase sirtuin-2), endogenous mouse (protein, UniProt Q8VDQ8-1 1-389)
chain: MAEPDPSDPLETQAGKVQEAQDSDSDTEGGATGGEAEMDFLRNLFTQTLGLGSQKERLLDELTLEGVTRYMQSERCRKVICLVGAGISTSAGIPDFRSPSTGLYANLEKYHLPYPEAIFEISYFKKHPEPFFALAKELYPGQFKPTICHYFIRLLKEKGLLLRCYTQNIDTLERVAGLEPQDLVEAHGTFYTSHCVNTSCRKEYTMGWMKEKIFSEATPRCEQCQSVVKPDIVFFGENLPSRFFSCMQSDFSKVDLLIIMGTSLQVQPFASLISKAPLATPRLLINKEKTGQTDPFLGMMMGLGGGMDFDSKKAYRDVAWLGDCDQGCLALADLLGWKKELEDLVRREHANIDAQSGSQAPNPSTTISPGKSPPPAKEAARTKEKEEQQ
Take B1: the binding result in experiment [2] is “binds”.
